The values that follow come from publication PMC5389555.

Where a chain is given by its changes, count along the chain named. These are yes or no findings as the source states them, for the method shown. In cells and extracts the contact can be indirect. Binding can be weak; no strength is given. For some assays here: Where a sequence is shown, tags or fusion partners need not be part of it.

Test [1] has as its target T1, Flag-Drosha-S300E,S302D (UniProt Q9NRR4).
T1 sequence: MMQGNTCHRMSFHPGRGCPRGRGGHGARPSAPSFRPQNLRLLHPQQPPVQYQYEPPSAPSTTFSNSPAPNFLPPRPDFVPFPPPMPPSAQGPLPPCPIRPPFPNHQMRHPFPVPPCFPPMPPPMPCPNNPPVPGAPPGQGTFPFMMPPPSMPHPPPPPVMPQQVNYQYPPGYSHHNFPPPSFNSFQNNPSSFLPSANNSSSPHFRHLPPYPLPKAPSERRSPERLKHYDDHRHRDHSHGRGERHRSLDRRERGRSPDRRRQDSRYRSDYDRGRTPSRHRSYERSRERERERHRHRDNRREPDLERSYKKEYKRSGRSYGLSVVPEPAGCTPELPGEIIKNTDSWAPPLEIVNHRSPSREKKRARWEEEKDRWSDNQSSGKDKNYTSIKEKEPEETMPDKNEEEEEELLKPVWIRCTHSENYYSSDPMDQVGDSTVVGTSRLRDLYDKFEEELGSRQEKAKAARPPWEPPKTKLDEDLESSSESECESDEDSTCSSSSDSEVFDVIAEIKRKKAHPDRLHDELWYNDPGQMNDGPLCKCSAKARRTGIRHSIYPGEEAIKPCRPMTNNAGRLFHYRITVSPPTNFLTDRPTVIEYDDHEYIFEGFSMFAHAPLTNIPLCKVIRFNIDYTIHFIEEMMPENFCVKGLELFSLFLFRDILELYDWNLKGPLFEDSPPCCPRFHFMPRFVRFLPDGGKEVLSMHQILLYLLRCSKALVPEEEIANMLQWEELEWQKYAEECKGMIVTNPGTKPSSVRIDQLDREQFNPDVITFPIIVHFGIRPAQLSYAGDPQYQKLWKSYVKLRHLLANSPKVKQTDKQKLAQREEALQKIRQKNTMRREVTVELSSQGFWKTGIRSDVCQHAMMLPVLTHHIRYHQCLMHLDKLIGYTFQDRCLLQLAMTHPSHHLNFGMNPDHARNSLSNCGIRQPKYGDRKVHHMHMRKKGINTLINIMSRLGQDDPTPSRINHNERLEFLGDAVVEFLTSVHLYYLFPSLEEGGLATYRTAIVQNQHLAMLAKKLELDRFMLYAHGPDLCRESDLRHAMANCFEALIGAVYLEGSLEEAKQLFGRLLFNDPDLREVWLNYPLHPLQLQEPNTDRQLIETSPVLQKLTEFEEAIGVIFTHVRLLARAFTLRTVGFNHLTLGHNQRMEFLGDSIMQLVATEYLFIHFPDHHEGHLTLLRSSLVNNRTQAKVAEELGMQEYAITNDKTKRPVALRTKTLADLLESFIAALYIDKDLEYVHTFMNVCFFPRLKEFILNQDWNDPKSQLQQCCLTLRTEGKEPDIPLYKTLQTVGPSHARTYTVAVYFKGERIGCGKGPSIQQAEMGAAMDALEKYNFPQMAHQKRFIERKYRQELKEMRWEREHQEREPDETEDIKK
In words: co-IP; HEK293T transfected with Flag-Drosha (WT or S300E,S302D) ± GSK3β-S9A or GSK3β-K85R, 48 h; lysates pre-cleared, anti-Flag M2 beads, 4°C overnight; blots for GSK3β, Flag, DGCR8, p72.

Test [2] addresses T2, Drosha (endogenous) (human (endogenous in HEK293T)) (UniProt Q9NRR4).
T2 sequence: T1 sequence with E300S, D302S
Briefly: co-IP; endogenous Drosha precipitated from HEK293T lysates (cells ± 2 μM 99021, 48 h) with rabbit anti-Drosha antibody on Protein G Dynabeads, 4°C overnight; rabbit IgG control; blots for DGCR8 and p72.

For the substance “p72 (DDX17) (endogenous) (human (endogenous in HEK293T))”, the binding entry in test [1] and in test [2] was “binds” throughout.
